# Reference: US10624964, “Methods and compositions for stimulating immune response using potent immunostimulatory RNA motifs” (The Trustees of the University of Pennsylvania)
# Amino acid sequences for entries named in this document (tags omitted). A change or cut given only in a name is not applied to a line headed by its entry.
# UniProt Q9BYX4: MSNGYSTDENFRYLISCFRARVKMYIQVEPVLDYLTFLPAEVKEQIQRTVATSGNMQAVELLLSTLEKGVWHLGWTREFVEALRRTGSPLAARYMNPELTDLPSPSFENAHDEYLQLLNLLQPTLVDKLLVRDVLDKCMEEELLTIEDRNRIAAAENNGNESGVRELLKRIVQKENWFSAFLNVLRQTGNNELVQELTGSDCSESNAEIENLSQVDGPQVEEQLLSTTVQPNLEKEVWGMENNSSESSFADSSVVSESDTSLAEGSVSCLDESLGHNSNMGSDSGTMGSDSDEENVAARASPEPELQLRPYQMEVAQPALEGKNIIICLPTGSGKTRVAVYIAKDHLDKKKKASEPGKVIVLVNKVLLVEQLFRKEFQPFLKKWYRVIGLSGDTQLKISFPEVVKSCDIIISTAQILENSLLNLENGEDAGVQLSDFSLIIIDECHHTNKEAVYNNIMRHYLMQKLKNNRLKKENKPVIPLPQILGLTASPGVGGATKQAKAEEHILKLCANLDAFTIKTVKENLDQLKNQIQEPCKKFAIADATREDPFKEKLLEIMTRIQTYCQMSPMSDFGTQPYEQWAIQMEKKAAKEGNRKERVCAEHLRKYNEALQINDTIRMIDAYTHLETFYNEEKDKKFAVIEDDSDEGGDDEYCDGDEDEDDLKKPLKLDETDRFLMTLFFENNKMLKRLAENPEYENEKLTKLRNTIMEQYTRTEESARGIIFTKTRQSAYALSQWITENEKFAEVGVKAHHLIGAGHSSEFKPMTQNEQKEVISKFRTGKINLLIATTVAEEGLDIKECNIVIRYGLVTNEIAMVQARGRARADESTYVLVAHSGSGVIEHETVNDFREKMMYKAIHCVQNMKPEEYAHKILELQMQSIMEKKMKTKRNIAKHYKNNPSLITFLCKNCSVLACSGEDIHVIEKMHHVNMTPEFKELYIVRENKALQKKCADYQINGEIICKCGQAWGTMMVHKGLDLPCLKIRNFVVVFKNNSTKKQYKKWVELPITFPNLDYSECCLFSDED
# UniProt O95786: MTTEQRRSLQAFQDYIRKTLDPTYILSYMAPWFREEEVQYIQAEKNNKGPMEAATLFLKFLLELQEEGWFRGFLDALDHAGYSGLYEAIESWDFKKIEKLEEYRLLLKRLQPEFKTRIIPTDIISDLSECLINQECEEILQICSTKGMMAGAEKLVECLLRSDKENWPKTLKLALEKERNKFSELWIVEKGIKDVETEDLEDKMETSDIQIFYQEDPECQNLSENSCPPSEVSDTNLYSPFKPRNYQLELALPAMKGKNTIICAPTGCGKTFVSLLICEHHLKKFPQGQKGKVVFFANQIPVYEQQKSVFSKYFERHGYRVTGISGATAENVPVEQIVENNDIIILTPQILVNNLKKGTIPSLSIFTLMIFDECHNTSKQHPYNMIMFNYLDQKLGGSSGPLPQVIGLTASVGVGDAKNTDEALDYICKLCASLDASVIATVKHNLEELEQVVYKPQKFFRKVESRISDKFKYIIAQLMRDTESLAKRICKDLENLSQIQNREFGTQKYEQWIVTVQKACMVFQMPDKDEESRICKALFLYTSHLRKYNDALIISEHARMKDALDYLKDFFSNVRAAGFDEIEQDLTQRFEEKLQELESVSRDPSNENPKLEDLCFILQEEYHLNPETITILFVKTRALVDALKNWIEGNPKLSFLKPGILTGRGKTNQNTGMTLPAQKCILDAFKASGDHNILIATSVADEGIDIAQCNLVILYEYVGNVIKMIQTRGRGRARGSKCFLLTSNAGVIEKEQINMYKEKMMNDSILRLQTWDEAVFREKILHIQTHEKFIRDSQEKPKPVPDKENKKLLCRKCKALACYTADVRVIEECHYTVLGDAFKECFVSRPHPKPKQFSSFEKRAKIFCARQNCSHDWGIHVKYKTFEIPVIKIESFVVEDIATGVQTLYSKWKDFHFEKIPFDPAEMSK
# For at least one entry, the source does not settle the construct or the ends of the probe.
# How the values were obtained:
# [1] = biological target: MDA5 deltaCARD (MDA5 without the two N-terminal CARDs) (UniProt Q9BYX4); assay: EMSA; conditions: 5'-triphosphate (T7 transcript); 20 mM HEPES pH 7.5, 150 mM NaCl, 1.5 mM MgCl2, 2 mM DTT, 37 C; purified recombinant protein; protein details: deltaCARD, provided by Sun Hur
# [2] = biological target: RIG-I deltaCARD (RIG-I without the two N-terminal CARDs) (UniProt O95786); assay: EMSA; conditions: 5'-triphosphate (T7 transcript); without ATP and with 1 uM ATP; 20 mM HEPES pH 7.5, 150 mM NaCl, 1.5 mM MgCl2, 2 mM DTT, 37 C; purified recombinant protein; protein details: deltaCARD, provided by Sun Hur
sequence,measurement,setting,value
ACCAGACAAGAGUUUAAGAGAUAUGUAUCCUUUUAAAUUUUCUUGUCUUCUUGUAAGUUUUUCUUGCUAUUGUCAUAUGGAUAAGUCCAAGACUAUCUUUAUCUAUGUCCACAAGAUUGGUAACUGGGUCAUUCCCUGACCAGAAGUUUGAAGCAAGACUUCCCGGUACCUGGAAGUCUUGGACUUAUCCAUAUGACAAUAGUAAGAAAAACUUACAAGAAGACAAGAAAAUUUAAUAGGAUACAUAUCUCUUAAACUCUUGUCUGGU [DVG-268 ivtRNA],binding result,[1],binds
same,binding result,[2],binds
